Source: article doi:10.1101/2024.01.16.575964
These are yes or no findings as the source states them, for the method shown. In cells and extracts the contact can be indirect. Some entries that bind do so weakly or less than the wild type.

Protein sequences, listed by entry. Tags and fused reporters are not part of them.
UniProt P36404: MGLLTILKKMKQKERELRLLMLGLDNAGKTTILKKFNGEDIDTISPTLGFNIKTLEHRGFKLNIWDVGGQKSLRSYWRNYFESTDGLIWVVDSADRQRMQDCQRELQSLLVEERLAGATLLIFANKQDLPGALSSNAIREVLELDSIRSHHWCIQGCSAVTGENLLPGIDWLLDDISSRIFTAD
UniProt Q96SN8: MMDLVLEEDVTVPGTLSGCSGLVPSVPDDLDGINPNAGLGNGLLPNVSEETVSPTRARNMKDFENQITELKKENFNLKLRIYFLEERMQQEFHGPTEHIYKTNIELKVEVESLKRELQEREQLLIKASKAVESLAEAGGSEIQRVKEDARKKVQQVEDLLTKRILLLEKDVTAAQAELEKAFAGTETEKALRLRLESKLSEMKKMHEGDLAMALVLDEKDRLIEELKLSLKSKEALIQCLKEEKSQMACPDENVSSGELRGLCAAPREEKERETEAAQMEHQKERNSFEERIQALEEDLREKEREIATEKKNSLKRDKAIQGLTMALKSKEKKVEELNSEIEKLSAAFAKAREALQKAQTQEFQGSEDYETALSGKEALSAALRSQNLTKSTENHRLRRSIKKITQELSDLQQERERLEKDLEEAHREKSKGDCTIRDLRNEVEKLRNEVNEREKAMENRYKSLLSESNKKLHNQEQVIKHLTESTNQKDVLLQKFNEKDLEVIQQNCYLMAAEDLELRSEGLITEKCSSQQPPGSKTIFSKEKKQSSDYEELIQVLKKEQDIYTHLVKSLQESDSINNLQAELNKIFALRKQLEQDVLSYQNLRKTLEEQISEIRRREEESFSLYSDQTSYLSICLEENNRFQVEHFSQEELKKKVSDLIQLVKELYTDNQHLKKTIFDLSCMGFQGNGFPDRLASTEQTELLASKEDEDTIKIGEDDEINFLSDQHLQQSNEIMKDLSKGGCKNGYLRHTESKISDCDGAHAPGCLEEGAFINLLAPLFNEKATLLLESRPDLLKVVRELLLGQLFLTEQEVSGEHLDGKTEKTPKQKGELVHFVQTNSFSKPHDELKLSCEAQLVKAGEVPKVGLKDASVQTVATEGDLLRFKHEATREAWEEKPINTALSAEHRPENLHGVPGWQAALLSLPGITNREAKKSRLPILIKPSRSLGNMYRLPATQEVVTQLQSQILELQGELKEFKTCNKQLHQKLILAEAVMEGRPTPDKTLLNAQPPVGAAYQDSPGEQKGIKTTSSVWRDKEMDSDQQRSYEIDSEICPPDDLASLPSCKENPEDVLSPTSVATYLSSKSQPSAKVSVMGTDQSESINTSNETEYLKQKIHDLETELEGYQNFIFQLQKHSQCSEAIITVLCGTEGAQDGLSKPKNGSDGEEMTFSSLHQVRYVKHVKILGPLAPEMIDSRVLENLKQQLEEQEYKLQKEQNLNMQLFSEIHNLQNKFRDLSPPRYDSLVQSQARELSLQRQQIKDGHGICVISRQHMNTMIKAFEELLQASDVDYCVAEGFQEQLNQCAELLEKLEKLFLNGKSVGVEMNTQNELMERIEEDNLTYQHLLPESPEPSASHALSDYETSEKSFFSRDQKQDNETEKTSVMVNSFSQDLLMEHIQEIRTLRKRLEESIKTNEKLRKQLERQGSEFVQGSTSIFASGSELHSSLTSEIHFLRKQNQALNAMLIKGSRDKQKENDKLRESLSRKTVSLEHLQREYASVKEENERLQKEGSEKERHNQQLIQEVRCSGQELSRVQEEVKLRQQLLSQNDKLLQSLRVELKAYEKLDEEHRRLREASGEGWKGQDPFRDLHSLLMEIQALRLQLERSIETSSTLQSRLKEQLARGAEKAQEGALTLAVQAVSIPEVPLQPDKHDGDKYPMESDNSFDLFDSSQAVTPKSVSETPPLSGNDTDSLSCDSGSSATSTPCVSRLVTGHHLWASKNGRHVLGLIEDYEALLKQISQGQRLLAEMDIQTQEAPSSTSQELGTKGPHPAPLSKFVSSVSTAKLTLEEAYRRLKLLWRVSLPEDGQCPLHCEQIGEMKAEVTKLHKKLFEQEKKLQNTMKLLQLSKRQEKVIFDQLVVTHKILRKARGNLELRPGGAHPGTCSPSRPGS

Biological target: ADP ribosylation factor-like GTPase 2 (Arl2), HA-tagged (human) (UniProt P36404)
Test: co-IP

binding: binds
Substance: CDK5 Regulatory Subunit Associated Protein 2 (Cdk5rap2/Cep215), Myc-tagged, in HEK293 cells (from UniProt Q96SN8 1-1893)
